Laboratory results from article PMC5680235, “Identification of a peptide recognizing cerebrovascular changes in mouse models of Alzheimer’s disease” (Nature Communications, 2017).
No constants are given. Whether binding was seen depends on the method and setting. In cells and extracts the contact can be indirect. A yes stands for co-enrichment or nearness to the bait. Other partners may have been found.

Chains of the proteins cited; added tags and fusions are not shown. Residues count along the entry.
UniProt P29279, residues 27-349: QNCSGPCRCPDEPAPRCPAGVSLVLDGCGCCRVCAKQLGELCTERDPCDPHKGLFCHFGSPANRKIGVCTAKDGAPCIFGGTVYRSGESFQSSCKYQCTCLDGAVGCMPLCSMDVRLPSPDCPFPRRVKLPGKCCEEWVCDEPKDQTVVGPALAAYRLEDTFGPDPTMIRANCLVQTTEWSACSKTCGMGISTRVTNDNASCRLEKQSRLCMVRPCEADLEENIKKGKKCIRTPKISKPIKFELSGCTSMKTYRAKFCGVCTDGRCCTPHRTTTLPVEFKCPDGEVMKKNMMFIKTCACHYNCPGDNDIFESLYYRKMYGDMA

Molecular target: T1, biotin-DAG peptide on Sera-Mag magnetic particles
T1 sequence (peptide, cyclic peptide; biotin at the N-terminus): CDAGRKQKC
Experiment: affinity purification with mass spectrometry; U251 lysate (200 mM n-octyl-beta-D-glucopyranoside in PBS) on magnetic particles coated with biotin-DAG, overnight at 4 °C; washed with 0.5 mM control peptide; eluted with 1 mM free DAG; LC-MS/MS; only the target purified

binding: binds
Substance: connective tissue growth factor (CTGF) of U251 cells (from UniProt P29279 27-349)
